Reference: PMC4474334
No constants are given. Whether binding was seen depends on the method and setting. For some assays here: Binding seen in cells or lysates may run through a third protein. Some binding calls cover weakened binding; strength is not graded here.

The chains behind the UniProt entries cited, without tags or fusion partners. Residues count along the entry.
UniProt P56480, residues 47-529: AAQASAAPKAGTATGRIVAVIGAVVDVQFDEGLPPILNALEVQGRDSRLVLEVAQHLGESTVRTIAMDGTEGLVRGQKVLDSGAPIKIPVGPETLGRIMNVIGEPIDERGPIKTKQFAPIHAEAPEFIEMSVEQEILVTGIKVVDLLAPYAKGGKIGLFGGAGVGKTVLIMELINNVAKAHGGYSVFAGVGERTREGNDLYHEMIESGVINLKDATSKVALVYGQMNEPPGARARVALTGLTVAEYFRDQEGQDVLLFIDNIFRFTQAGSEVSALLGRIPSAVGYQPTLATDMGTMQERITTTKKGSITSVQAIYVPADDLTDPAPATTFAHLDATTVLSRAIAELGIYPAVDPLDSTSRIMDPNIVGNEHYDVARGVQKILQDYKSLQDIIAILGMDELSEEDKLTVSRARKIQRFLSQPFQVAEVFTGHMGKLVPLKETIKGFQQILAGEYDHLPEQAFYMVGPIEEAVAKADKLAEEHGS
UniProt P63038, residues 27-573: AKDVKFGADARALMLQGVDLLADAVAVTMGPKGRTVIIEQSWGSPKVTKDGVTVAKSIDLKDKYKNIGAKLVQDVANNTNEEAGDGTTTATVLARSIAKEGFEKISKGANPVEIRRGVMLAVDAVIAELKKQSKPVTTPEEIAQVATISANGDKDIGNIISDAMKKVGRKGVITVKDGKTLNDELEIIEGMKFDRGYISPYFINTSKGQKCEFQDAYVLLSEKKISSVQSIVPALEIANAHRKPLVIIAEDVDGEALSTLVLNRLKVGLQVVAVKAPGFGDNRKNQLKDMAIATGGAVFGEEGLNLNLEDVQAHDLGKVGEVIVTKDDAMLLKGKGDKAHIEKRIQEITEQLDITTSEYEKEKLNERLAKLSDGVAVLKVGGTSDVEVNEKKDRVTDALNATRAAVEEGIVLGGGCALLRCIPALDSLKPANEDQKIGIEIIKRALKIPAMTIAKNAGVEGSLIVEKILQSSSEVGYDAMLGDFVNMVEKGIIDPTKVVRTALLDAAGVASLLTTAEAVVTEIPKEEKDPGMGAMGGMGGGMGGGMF
UniProt Q03265, residues 44-553: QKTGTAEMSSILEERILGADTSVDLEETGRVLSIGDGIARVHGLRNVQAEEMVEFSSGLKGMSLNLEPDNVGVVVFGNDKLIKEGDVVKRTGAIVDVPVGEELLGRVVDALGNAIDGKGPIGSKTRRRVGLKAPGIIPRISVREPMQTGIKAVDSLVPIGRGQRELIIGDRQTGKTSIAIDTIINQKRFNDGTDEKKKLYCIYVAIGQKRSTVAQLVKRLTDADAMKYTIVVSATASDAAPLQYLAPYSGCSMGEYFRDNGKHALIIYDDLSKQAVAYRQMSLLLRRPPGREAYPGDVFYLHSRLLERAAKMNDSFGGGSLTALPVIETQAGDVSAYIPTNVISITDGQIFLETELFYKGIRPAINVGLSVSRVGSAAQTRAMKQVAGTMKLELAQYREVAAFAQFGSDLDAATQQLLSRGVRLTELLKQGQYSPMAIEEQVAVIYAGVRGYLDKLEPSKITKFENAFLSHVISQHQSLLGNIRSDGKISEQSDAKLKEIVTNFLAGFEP
UniProt Q9D0K2, residues 40-520: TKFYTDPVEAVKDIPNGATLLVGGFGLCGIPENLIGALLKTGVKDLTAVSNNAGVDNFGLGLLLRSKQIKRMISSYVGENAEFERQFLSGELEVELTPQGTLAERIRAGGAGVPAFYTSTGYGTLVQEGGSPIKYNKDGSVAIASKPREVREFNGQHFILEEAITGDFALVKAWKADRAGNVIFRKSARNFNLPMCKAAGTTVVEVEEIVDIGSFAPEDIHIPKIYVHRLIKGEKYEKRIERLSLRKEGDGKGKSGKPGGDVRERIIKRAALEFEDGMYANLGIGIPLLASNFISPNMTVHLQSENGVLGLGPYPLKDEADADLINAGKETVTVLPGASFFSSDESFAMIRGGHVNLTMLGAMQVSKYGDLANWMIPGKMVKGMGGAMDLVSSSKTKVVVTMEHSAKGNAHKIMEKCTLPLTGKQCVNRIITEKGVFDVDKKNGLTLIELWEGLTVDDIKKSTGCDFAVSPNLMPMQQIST
UniProt P15917, residues 34-809: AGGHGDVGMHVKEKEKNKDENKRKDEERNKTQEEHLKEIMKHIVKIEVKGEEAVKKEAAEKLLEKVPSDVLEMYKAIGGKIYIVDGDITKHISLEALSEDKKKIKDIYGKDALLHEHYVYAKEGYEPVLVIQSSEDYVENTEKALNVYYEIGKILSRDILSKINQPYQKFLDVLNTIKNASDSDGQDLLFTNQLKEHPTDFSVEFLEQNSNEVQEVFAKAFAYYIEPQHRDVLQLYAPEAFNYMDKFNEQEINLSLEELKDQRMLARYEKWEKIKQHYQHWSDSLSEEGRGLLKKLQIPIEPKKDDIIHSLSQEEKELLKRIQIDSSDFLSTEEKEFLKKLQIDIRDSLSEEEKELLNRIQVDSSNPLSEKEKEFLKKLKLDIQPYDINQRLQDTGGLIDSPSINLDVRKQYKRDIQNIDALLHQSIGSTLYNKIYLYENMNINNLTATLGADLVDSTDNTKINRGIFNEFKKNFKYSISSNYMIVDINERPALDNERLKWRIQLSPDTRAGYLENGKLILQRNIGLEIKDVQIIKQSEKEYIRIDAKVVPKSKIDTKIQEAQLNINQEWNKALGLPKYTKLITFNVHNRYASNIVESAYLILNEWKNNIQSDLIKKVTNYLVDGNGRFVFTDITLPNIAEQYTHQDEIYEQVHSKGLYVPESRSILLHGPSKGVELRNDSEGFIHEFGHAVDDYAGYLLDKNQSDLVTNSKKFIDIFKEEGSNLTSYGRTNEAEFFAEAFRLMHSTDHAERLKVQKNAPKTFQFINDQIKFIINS

How the values were obtained:
[1] = target: Mitochondrial ATP synthase H+ transporting, F1 subunit beta (mouse (endogenous in MH-S and LA-4)) (UniProt P56480); assay: far-Western; only the binder purified
[2] = target: T1, Mitochondrial ATP synthase subunit O (precursor) (mouse (endogenous in MH-S)) (UniProt Q9DB20); assay: far-Western; only the binder purified
T1 sequence: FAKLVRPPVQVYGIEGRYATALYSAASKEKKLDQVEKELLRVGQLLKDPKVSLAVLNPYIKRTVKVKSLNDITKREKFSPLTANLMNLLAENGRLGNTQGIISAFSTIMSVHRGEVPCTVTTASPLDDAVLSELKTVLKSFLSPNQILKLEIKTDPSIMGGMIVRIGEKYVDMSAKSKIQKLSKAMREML

[3] = target: T2, Mitochondrial trifunctional enzyme subunit beta (precursor) (mouse (endogenous in MH-S)) (UniProt Q99JY0); assay: far-Western; only the binder purified
T2 sequence: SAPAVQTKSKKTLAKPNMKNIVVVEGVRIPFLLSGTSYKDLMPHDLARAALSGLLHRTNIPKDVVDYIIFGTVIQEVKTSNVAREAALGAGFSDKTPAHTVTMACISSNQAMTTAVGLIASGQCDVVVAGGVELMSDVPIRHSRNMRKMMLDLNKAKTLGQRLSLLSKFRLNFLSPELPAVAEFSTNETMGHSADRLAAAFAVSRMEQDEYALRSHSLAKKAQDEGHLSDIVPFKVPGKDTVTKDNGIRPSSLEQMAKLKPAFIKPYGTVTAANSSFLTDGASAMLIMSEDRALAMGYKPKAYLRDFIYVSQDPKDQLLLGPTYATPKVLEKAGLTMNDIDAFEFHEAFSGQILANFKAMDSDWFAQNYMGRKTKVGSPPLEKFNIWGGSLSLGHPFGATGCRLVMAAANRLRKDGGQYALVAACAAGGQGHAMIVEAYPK

[4] = target: Heat shock protein (60 kD, mitochondrial) (mouse (endogenous in MH-S)) (UniProt P63038); assay: far-Western; only the binder purified
[5] = target: T3, Mitochondrial cytochrome bc-1 complex subunit core 2 (precursor) (mouse (endogenous in MH-S)) (UniProt Q9DB77); assay: far-Western; only the binder purified
T3 sequence: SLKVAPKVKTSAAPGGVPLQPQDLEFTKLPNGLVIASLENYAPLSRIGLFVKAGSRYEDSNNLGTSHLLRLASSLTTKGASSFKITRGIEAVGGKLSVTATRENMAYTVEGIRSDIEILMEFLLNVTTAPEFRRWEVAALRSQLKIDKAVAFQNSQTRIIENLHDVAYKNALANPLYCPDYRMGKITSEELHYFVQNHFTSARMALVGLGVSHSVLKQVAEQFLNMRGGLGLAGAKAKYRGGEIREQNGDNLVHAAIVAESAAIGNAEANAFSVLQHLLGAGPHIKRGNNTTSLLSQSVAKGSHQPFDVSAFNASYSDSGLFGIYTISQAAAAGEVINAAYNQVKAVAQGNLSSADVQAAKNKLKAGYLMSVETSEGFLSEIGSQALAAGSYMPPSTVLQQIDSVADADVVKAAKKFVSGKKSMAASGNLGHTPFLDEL

[6] = target: T4, Short-chain specific acyl-CoA dehydrogenase (precursor) (mouse (endogenous in MH-S)) (UniProt Q07417); assay: far-Western; only the binder purified
T4 sequence: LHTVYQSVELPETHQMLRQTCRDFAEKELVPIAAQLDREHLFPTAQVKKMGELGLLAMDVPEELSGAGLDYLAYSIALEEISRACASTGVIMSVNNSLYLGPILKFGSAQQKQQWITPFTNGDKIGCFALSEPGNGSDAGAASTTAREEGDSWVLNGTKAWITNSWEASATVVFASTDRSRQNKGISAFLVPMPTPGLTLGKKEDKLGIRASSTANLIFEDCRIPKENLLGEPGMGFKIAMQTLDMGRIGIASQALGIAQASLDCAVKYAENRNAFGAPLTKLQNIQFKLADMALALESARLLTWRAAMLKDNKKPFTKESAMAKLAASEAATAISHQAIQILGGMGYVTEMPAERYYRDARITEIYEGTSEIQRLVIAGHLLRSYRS

[7] = target: Mitochondrial ATP synthase subunit alpha (precursor) (mouse (endogenous in MH-S)) (UniProt Q03265); assay: far-Western; only the binder purified
[8] = target: T5, Mitochondrial ATP synthase H+ transporting F0 complex subunit b, isoform 1 (precursor) (mouse (endogenous in MH-S)) (UniProt Q9CQQ7); assay: far-Western; only the binder purified
T5 sequence: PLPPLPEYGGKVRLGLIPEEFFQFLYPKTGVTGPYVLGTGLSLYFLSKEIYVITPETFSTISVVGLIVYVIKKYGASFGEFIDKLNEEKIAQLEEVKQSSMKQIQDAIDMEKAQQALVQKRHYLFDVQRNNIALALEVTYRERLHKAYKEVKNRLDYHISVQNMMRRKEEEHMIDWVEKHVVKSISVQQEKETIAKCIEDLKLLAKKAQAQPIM

[9] = target: T6, Mitochondrial cytochrome bc-1 complex subunit core 1 (precursor) (mouse (endogenous in MH-S)) (UniProt Q9CZ13); assay: far-Western; only the binder purified
T6 sequence: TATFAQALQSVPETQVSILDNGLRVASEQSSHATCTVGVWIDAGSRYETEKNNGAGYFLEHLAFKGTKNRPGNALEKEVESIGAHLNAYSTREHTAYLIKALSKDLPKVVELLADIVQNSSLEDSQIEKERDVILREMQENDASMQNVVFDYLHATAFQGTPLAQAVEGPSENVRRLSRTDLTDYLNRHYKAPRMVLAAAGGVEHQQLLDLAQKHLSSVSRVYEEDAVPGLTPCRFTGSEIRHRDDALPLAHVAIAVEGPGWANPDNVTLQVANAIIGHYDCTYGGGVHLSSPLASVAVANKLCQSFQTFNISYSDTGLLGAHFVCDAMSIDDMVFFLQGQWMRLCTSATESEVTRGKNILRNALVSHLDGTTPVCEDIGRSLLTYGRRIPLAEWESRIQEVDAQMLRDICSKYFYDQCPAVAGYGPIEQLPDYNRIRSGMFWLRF

[10] = target: 3-oxoacid CoA transferase (mouse (endogenous in MH-S)) (UniProt Q9D0K2); assay: far-Western; only the binder purified
[11] = target: anthrax lethal factor (Bacillus anthracis) (UniProt P15917); assay: co-IP

Measured: binding

anthrax lethal factor (from UniProt P15917 34-809) (enzyme)
not listed: [11]
binds: all other assays above

Mitochondrial ATP synthase H+ transporting, F1 subunit beta (from UniProt P56480 47-529)
binds: [11]
